Assay results reported in publication doi:10.1101/2025.05.20.655064.
Read-outs that look alike come from different tables or passages of the source. No constants are given. Whether binding was seen depends on the method and setting. Binding seen in cells or lysates may run through a third protein. Here binding means that the protein was enriched with, or labelled near, the bait; the list need not be complete. Values belong to the molecule of their own block, whether it stands above or below them.

The chains behind the UniProt entries cited, without tags or fusion partners. Residues count along the entry.
UniProt P01375, residues 77-233: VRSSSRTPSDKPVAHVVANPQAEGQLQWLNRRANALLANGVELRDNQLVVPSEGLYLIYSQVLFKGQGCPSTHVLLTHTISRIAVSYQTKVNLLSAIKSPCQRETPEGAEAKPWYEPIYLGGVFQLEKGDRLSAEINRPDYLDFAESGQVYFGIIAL
UniProt Q9UHD2: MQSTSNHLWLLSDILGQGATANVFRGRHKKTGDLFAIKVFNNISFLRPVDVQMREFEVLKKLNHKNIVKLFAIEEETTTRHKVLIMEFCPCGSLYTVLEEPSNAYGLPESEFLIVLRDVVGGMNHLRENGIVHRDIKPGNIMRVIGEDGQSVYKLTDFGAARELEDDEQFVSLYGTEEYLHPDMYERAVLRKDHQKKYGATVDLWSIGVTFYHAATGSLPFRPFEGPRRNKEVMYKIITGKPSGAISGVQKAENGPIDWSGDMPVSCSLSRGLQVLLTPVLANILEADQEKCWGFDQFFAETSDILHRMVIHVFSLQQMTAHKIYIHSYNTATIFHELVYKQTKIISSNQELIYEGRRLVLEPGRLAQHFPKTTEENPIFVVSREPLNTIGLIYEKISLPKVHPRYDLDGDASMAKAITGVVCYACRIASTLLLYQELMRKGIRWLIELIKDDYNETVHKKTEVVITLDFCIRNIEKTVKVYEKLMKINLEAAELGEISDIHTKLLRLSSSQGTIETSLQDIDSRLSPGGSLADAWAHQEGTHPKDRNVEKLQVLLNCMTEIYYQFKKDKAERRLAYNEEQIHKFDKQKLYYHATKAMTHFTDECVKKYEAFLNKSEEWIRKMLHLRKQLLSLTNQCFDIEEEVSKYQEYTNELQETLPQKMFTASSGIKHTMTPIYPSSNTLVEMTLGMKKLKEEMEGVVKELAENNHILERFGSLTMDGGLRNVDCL

Key:
biotinylated TNF [1] = target: biotinylated TNF (UniProt P01375); test: affinity purification with mass spectrometry
biotinylated TNF [2] = target: biotinylated TNF (UniProt P01375); test: affinity purification with mass spectrometry; remark: listed apart in the source

Molecule: TBK1 (from UniProt Q9UHD2 1-729)
binding (biotinylated TNF [1]): binds

B2: IKKe (protein, UniProt Q14164 1-716)
chain: MQSTANYLWHTDDLLGQGATASVYKARNKKSGELVAVKVFNTTSYLRPREVQVREFEVLRKLNHQNIVKLFAVEETGGSRQKVLVMEYCSSGSLLSVLESPENAFGLPEDEFLVVLRCVVAGMNHLRENGIVHRDIKPGNIMRLVGEEGQSIYKLTDFGAARELDDDEKFVSVYGTEEYLHPDMYERAVLRKPQQKAFGVTVDLWSIGVTLYHAATGSLPFIPFGGPRRNKEIMYRITTEKPAGAIAGAQRRENGPLEWSYTLPITCQLSLGLQSQLVPILANILEVEQAKCWGFDQFFAETSDILQRVVVHVFSLSQAVLHHIYIHAHNTIAIFQEAVHKQTSVAPRHQEYLFEGHLCVLEPSVSAQHIAHTTASSPLTLFSTAIPKGLAFRDPALDVPKFVPKVDLQADYNTAKGVLGAGYQALRLARALLDGQELMFRGLHWVMEVLQATCRRTLEVARTSLLYLSSSLGTERFSSVAGTPEIQELKAAAELRSRLRTLAEVLSRCSQNITETQESLSSLNRELVKSRDQVHEDRSIQQIQCCLDKMNFIYKQFKKSRMRPGLGYNEEQIHKLDKVNFSHLAKRLLQVFQEECVQKYQASLVTHGKRMRVVHETRNHLRLVGCSVAACNTEAQGVQESLSKLLEELSHQLLQDRAKGAQASPPPIAPYPSPTRKDLLLHMQELCEGMKLLASDLLDNNRIIERLNRVPAPPDV
binding (biotinylated TNF [2]): binds

Further lines, results first:

binding (biotinylated TNF [2]): binds
B1: TAK1 (protein, UniProt O43318 1-606)
chain: MSTASAASSSSSSSAGEMIEAPSQVLNFEEIDYKEIEVEEVVGRGAFGVVCKAKWRAKDVAIKQIESESERKAFIVELRQLSRVNHPNIVKLYGACLNPVCLVMEYAEGGSLYNVLHGAEPLPYYTAAHAMSWCLQCSQGVAYLHSMQPKALIHRDLKPPNLLLVAGGTVLKICDFGTACDIQTHMTNNKGSAAWMAPEVFEGSNYSEKCDVFSWGIILWEVITRRKPFDEIGGPAFRIMWAVHNGTRPPLIKNLPKPIESLMTRCWSKDPSQRPSMEEIVKIMTHLMRYFPGADEPLQYPCQYSDEGQSNSATSTGSFMDIASTNTSNKSDTNMEQVPATNDTIKRLESKLLKNQAKQQSESGRLSLGASRGSSVESLPPTSEGKRMSADMSEIEARIAATTAYSKPKRGHRKTASFGNILDVPEIVISGNGQPRRRSIQDLTVTGTEPGQVSSRSSSPSVRMITTSGPTSEKPTRSHPWTPDDSTDTNGSDNSIPMAYLTLDHQLQPLAPCPNSKESMAVFEQHCKMAQEYMKVQTEIALLLQRKQELVAELDQDEKDQQNTSRLVQEHKKLLDENKSLSTYYQQCKKQLEVIRSQQQKRQGTS

binding (biotinylated TNF [2]): binds
B3: A20 (protein, UniProt P21580)
chain: MAEQVLPQALYLSNMRKAVKIRERTPEDIFKPTNGIIHHFKTMHRYTLEMFRTCQFCPQFREIIHKALIDRNIQATLESQKKLNWCREVRKLVALKTNGDGNCLMHATSQYMWGVQDTDLVLRKALFSTLKETDTRNFKFRWQLESLKSQEFVETGLCYDTRNWNDEWDNLIKMASTDTPMARSGLQYNSLEEIHIFVLCNILRRPIIVISDKMLRSLESGSNFAPLKVGGIYLPLHWPAQECYRYPIVLGYDSHHFVPLVTLKDSGPEIRAVPLVNRDRGRFEDLKVHFLTDPENEMKEKLLKEYLMVIEIPVQGWDHGTTHLINAAKLDEANLPKEINLVDDYFELVQHEYKKWQENSEQGRREGHAQNPMEPSVPQLSLMDVKCETPNCPFFMSVNTQPLCHECSERRQKNQNKLPKLNSKPGPEGLPGMALGASRGEAYEPLAWNPEESTGGPHSAPPTAPSPFLFSETTAMKCRSPGCPFTLNVQHNGFCERCHNARQLHASHAPDHTRHLDPGKCQACLQDVTRTFNGICSTCFKRTTAEASSSLSTSLPPSCHQRSKSDPSRLVRSPSPHSCHRAGNDAPAGCLSQAARTPGDRTGTSKCRKAGCVYFGTPENKGFCTLCFIEYRENKHFAAASGKVSPTASRFQNTIPCLGRECGTLGSTMFEGYCQKCFIEAQNQRFHEAKRTEEQLRSSQRRDVPRTTQSTSRPKCARASCKNILACRSEELCMECQHPNQRMGPGAHRGEPAPEDPPKQRCRAPACDHFGNAKCNGYCNECFQFKQMYG
